Reference: publication PMC9780108 (Cell Reports. Physical Science, 2022)
Some peptides are written in HELM: one residue between dots, names in brackets for other building blocks, links after the first $.

Test: general procedure: Fmoc solid-phase peptide synthesis; TentaGel S RAM resin (0.22 mmol/g); Rink Amide MBHA resin (0.25 mmol/g) on synthesizer; DIC/OxymaPure
Details: whole synthesis

Substance	isolated mass (scale 0.08 mmol) [mg]	isolated yield (scale 0.08 mmol) [%]	other results
PEPTIDE1{[dK].[dL].[dK].[dL].[dK].[dK].[dL].[dL].[dK].[dL].[dK].[dK].[am]}|PEPTIDE2{[dK].[dL].[dK].[dL].[dK].[dK].[dL].[dL]}|PEPTIDE3{[dK].[dL].[dK].[dL]}|PEPTIDE4{[dK].[dL].[dK].[dL]}|PEPTIDE5{[dK].[dL]}|PEPTIDE6{[dK].[dL]}|PEPTIDE7{[dK].[dL]}|PEPTIDE8{[dK].[dL]}$PEPTIDE1,PEPTIDE2,9:R3-8:R2|PEPTIDE1,PEPTIDE3,5:R3-4:R2|PEPTIDE2,PEPTIDE4,5:R3-4:R2|PEPTIDE1,PEPTIDE5,3:R3-2:R2|PEPTIDE2,PEPTIDE6,3:R3-2:R2|PEPTIDE3,PEPTIDE7,3:R3-2:R2|PEPTIDE4,PEPTIDE8,3:R3-2:R2$$$V2.0	171.2	32.2	
(AhxL)8(KLK)4(KLL)2KLLL			isolated mass (scale 0.09 mmol, run 1): 91.2 mg; isolated yield (scale 0.09 mmol, run 1): 19.5%; isolated mass (scale 0.09 mmol, run 2): 106.3 mg; isolated yield (scale 0.09 mmol, run 2): 22.7%
PEPTIDE1{[dK].[dL].[dK].[dK].[dL].[dK].[dL].[dL].[dK].[dK].[dL].[dL].[am]}|PEPTIDE2{[dK].[dL].[dK].[dK].[dL].[dK].[dL].[dL]}|PEPTIDE3{[dK].[dL].[dK].[dK].[dL]}|PEPTIDE4{[dK].[dL].[dK].[dK].[dL]}|PEPTIDE5{[dK].[dL]}|PEPTIDE6{[dK].[dL]}|PEPTIDE7{[dK].[dL]}|PEPTIDE8{[dK].[dL]}$PEPTIDE1,PEPTIDE2,9:R3-8:R2|PEPTIDE1,PEPTIDE3,6:R3-5:R2|PEPTIDE2,PEPTIDE4,6:R3-5:R2|PEPTIDE1,PEPTIDE5,3:R3-2:R2|PEPTIDE2,PEPTIDE6,3:R3-2:R2|PEPTIDE3,PEPTIDE7,3:R3-2:R2|PEPTIDE4,PEPTIDE8,3:R3-2:R2$$$V2.0	85.5	15.3	
PEPTIDE1{K.L.K.K.L.K.L.L.K.K.L.L.[am]}|PEPTIDE2{K.L.K.K.L.K.L.L}|PEPTIDE3{K.L.K.K.L}|PEPTIDE4{K.L.K.K.L}|PEPTIDE5{K.L}|PEPTIDE6{K.L}|PEPTIDE7{K.L}|PEPTIDE8{K.L}$PEPTIDE1,PEPTIDE2,9:R3-8:R2|PEPTIDE1,PEPTIDE3,6:R3-5:R2|PEPTIDE2,PEPTIDE4,6:R3-5:R2|PEPTIDE1,PEPTIDE5,3:R3-2:R2|PEPTIDE2,PEPTIDE6,3:R3-2:R2|PEPTIDE3,PEPTIDE7,3:R3-2:R2|PEPTIDE4,PEPTIDE8,3:R3-2:R2$$$V2.0	40.3	7.2	
PEPTIDE1{[dK].[dL].[dK].[dL].[dK].[dK].[dL].[dL].[dK].[dL].[dL].[dL].[am]}|PEPTIDE2{[dK].[dL].[dK].[dL].[dK].[dK].[dL].[dL]}|PEPTIDE3{[dK].[dL].[dK].[dL].[dK]}|PEPTIDE4{[dK].[dL].[dK].[dL].[dK]}|PEPTIDE5{[dK].[dL]}|PEPTIDE6{[dK].[dL]}|PEPTIDE7{[dK].[dL]}|PEPTIDE8{[dK].[dL]}$PEPTIDE1,PEPTIDE2,9:R3-8:R2|PEPTIDE1,PEPTIDE3,6:R3-5:R2|PEPTIDE2,PEPTIDE4,6:R3-5:R2|PEPTIDE1,PEPTIDE5,3:R3-2:R2|PEPTIDE2,PEPTIDE6,3:R3-2:R2|PEPTIDE3,PEPTIDE7,3:R3-2:R2|PEPTIDE4,PEPTIDE8,3:R3-2:R2$$$V2.0			isolated mass (scale 0.09 mmol): 112.9 mg; isolated yield (scale 0.09 mmol): 20.5%
PEPTIDE1{K.L.K.L.K.K.L.L.K.L.L.L.[am]}|PEPTIDE2{K.L.K.L.K.K.L.L}|PEPTIDE3{K.L.K.L.K}|PEPTIDE4{K.L.K.L.K}|PEPTIDE5{K.L}|PEPTIDE6{K.L}|PEPTIDE7{K.L}|PEPTIDE8{K.L}$PEPTIDE1,PEPTIDE2,9:R3-8:R2|PEPTIDE1,PEPTIDE3,6:R3-5:R2|PEPTIDE2,PEPTIDE4,6:R3-5:R2|PEPTIDE1,PEPTIDE5,3:R3-2:R2|PEPTIDE2,PEPTIDE6,3:R3-2:R2|PEPTIDE3,PEPTIDE7,3:R3-2:R2|PEPTIDE4,PEPTIDE8,3:R3-2:R2$$$V2.0			isolated mass (scale 0.09 mmol): 187.0 mg; isolated yield (scale 0.09 mmol): 34.0%
PEPTIDE1{K.L.K.L.K.K.L.L.K.L.K.K.[am]}|PEPTIDE2{K.L.K.L.K.K.L.L}|PEPTIDE3{K.L.K.L}|PEPTIDE4{K.L.K.L}|PEPTIDE5{K.L}|PEPTIDE6{K.L}|PEPTIDE7{K.L}|PEPTIDE8{K.L}$PEPTIDE1,PEPTIDE2,9:R3-8:R2|PEPTIDE1,PEPTIDE3,5:R3-4:R2|PEPTIDE2,PEPTIDE4,5:R3-4:R2|PEPTIDE1,PEPTIDE5,3:R3-2:R2|PEPTIDE2,PEPTIDE6,3:R3-2:R2|PEPTIDE3,PEPTIDE7,3:R3-2:R2|PEPTIDE4,PEPTIDE8,3:R3-2:R2$$$V2.0	37.4	7.0	
